The text below walks through data of publication PMC4873228.

Assay [1] addresses T1, UBR::GFP (UBR domain of Ubr3, aa 222-292, with GFP at the carboxyl terminus) (Drosophila) (UniProt Q9W3M3).
T1 sequence: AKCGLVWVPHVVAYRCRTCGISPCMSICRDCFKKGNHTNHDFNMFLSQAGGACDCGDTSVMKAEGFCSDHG
Nature of the assay: co-IP; UBR::GFP or GFP alone precipitated with anti-GFP beads from lysates of transiently transfected S2 cells; blot with anti-Ubr3 antibody for endogenous Ubr3; lysis buffer 25 mM Tris-HCl pH 7.5, 150 mM NaCl, 1 mM EDTA, 1% NP-40, 5% glycerol, 1 mM DTT; beads overnight at 4°C.

The target in assay [2] is Ubr3::GFP (full length Ubr3 with GFP at the carboxyl terminus) (Drosophila) (UniProt Q9W3M3). Nature of the assay: co-IP; S2 cells co-transfected with HA::Cos2 or its deletion constructs and GFP, UBR::GFP or Ubr3::GFP; lysate precipitated with anti-GFP agarose overnight at 4°C, blot anti-HA and anti-GFP; lysis buffer 25 mM Tris-HCl pH 7.5, 150 mM NaCl, 1 mM EDTA, 1% NP-40; Ubr3::GFP with HA::Cos2 also after Colchicine (1 ug/ml, 5 hours; interaction not affected) and with co-transfected Hh (interaction strongly increased).

The target in assay [3] is T1, UBR::GFP (UBR domain of Ubr3, aa 222-292, with GFP at the carboxyl terminus) (Drosophila). Described as above.

These are yes or no findings as the source states them, for the method shown. Binding seen in cells or lysates may run through a third protein. Some results given as binding are weak or reduced against the parent protein; the word gives no strength. Tags and fused reporters may be left off the sequences shown.

For the molecule “endogenous Ubr3 full length protein (from UniProt Q9W3M3 1-2219) (enzyme)”, in assay [1], the binding entry is given as “binds”.

B1: HA::Cos2 (full length Costal 2) (protein, UniProt O16844 1-1201)
chain: MEIPIQVAVRIFPHRELKDLLRSFGPTEPKKDAQAVDEGADSKDSEAQVPAAEKDNPSISETDPNGNAEQDSAADSKTIPDANGNDSGQKDYPDSAYCVQAIPISASALGLPSALPGGDPMDSIAAGLIQVGPHTVPVTHALPSSSSQEQVYHQTVFPLITLFLEGFDASVVTYGQRGQGKSYTLYGNVQDPTLTDSTEGVVQLCVRDIFSHISLHPERTYAINVGFVEICGGDVCDLLGMGNIHCTNVDAVFHWLQVGLSARQSLPAHTLFTLTLEQQWVSKEGLLQHRLSTASFSDLCGTERCGDQPPGRPLDAGLCMLEQVISTLTDPGLMYGVNGNIPYGQTTLTTLLKDSFGGRAQTLVILCVSPLEEHLPETLGNLQFAFKVQCVRNFVIMNTYSDDNTMIVQPAEPVPESNSSAGPLSQAGPGDNFGLQFAASQWSKLVTNAEGLFSKLIDSKLITEVEKEQIEEWLFLKQECEECLSSTEAMRQQKQLVPILEAEEPEDVNSEAANSESPNSDNENDTDNESHRPDLDDKIESLMEEFRDKTDALILEKHAEYLSKHPKAVMQSQDREIEAQPPEENGDDRKVSIGSRRRSVQPGASLSTAELAMLNRVASQQPPPPIDPESVVDPLESSSGEGIRQAALAAAAATAPIEQLQKKLRKLVAEIEGKQRQLREIEETIQVKQNIIAELVKNSDTRSHAKQRFHKKRAKLEAECDKAKKQLGKALVQGRDQSEIERWTTIIGHLERRLEDLSSMKHIAGESGQKVKKLQQSVGESRKQADDLQKKLRKECKLRCQMEAELAKLRESRETGKELVKAQGSPEQQGRQLKAVQARITHLNHILREKSDNLEEQPGPEQQETLRHEIRNLRGTRDLLLEERCHLDRKLKRDKVLTQKEERKLLECDEAIEAIDAAIEFKNEMITGHRSIDTSDRIQREKGEQMLMARLNRLSTEEMRTLLYKYFTKVIDLRDSSRKLELQLVQLERERDAWEWKERVLSNAVRQARLEGERNAVLLQRQHEMKLTLMLRHMAEETSASSASYGERALAPACVAPPVQASSDFDYDHFYKGGGNPSKALIKAPKPMPTGSALDKYKDKEQRSGRNIFAKFHVLTRYASAAAAGSSGSTAEESTALIESTTTATATTTSTTTTGAVGKVKDKALVSFRPEQLKRLMPAPTATKVTRQKNKIIIQDASRRN
For B1, the binding result in assay [2] and in assay [3] was “binds” each time.
